According to patent US12471620B2, “Use of isothiocyanate in smokeless tobacco products” (Gamot Global Pte. Ltd., priority 2019, dated 2025):
Some entries share one result that the patent states for a list of compounds.

Tested on: A549 cells
Assay: CellEvent Caspase 3/7 green detection assay of apoptosis, brightfield and fluorescent imaging
Type: cell-based, human
Conditions: after 4 days of treatment, single compound
Procedure: A549 cells were plated into 48 well culture plates at a density of 3.0×10^4 cells/cm^2. Cells were dissociated with 0.05% trypsin EDTA following a 5-minute incubation at 37° C., neutralized in a 1:1 ratio of standard medium and counted using a hemocytometer prior to plating. All wells were settled overnight prior to addition of one of the following treatment compounds: AITC, PEITC, Thymoquinone, or Resveratrol. All treatments were performed within 24 hours following initial plating.
Treatment of the A549 cells occurred at the following time points and concentrations: AITC—25 μM, 50 μM and 100 μM for 24, 48 and 96 hours. PEITC—25 μM, 50 μM, 100 μM and 200 μM for 24, 48 and 96 hours. TQ—25 μM, 50 μM, 10 0 μM and 200 μM for 24, 48 and 96 hours. Resveratrol—25 μM, 50 μM and 100 μM for 48 and 96 hours. DMSO was used to dissolve each compound, and cells treated with DMSO without any of tested compounds served as a control. Treated cells received daily treatments using the same concentrations until the last time point of the experiment.
Apoptosis was detected using the CellEvent Caspase 3/7 green detection kit/assay from Thermofisher Scientific. Cells were incubated with diluted assay reagent for 30 minutes at 37° C. prior to analysis, and imaged by a brightfield and a fluorescent microscopes. […]

SMILES: C=CCN=C=S [AITC, Allyl Isothiocyanate]
- apoptosis rate: up to 95%
